# These are yes or no findings as the source states them, for the method shown. For some of these results: In cells and extracts the contact can be indirect. Some results given as binding are weak or reduced against the parent protein; the word gives no strength. For some of these results: Tags and fused reporters may be left off the sequences shown.
# By UniProt entry, the sequences of proteins in these tests, tags left out. Where a name states a change or a piece, a line headed by the entry shows the natural chain unless it says otherwise. Chains listed by the source or under a name are the forms on record and can include a tag or linker. Residues count along the entry.
# UniProt Q9SCZ4: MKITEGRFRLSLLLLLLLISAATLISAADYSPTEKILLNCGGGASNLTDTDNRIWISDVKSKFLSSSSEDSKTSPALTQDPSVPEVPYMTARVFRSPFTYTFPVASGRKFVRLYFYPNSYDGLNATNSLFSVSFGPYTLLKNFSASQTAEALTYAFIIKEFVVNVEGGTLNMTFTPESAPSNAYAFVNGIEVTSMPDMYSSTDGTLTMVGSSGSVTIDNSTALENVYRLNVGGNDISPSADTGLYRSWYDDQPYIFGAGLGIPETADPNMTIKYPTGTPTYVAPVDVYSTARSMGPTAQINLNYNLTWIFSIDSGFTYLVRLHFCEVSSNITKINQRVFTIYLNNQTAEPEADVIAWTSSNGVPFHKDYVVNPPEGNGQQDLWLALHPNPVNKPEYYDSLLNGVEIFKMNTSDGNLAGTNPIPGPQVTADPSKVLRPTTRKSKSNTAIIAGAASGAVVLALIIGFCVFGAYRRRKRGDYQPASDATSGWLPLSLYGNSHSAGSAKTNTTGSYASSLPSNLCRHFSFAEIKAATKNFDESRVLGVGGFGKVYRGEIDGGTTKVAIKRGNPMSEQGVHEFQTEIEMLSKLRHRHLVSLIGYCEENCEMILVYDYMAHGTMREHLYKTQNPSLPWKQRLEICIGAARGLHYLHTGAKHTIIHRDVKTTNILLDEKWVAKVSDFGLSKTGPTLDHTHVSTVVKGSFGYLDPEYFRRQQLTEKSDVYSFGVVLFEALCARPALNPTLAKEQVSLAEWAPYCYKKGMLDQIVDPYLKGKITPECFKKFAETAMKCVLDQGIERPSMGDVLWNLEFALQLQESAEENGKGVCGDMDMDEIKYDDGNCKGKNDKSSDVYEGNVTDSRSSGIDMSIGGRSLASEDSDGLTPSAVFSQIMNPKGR
# FER-nVenus: residues 28-895 of Q9SCZ4
# FER kinase domain (FER-KD, 469–896 aa) fused to the GAL4 DNA-binding domain: residues 469-895 of Q9SCZ4
# kinase-dead version of FER-KD containing the Lys565-to-Arg mutation, His-tagged (Q9SCZ4, form named): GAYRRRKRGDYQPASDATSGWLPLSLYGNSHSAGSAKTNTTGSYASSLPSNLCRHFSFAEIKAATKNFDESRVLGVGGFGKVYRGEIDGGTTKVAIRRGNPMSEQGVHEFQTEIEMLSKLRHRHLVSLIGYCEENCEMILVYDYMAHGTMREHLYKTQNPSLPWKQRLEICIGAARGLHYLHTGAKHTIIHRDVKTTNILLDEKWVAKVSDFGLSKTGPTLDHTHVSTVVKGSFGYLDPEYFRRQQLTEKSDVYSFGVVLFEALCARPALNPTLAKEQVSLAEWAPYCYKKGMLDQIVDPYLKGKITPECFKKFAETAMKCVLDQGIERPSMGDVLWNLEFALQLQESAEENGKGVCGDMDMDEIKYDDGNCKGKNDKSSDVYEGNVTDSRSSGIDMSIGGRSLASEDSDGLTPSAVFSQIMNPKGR
# T1: full-length EBP1 protein tagged with GST (Arabidopsis) (UniProt Q96327)
# T1 sequence: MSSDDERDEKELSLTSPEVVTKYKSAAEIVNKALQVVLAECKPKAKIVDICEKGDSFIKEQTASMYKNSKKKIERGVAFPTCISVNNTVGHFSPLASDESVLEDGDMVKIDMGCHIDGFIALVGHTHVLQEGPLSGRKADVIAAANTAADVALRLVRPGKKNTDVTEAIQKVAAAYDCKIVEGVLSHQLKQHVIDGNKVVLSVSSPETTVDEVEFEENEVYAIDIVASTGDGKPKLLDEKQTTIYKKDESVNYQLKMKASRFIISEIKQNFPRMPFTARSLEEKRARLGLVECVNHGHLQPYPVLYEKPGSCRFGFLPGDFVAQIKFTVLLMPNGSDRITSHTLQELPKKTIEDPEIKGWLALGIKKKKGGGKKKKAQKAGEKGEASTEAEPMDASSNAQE
# B1: EBP1 truncated version (229–401 aa), clone from the Arabidopsis cDNA library (domain or fragment, UniProt Q96327-3 229-401)
# chain: TGDGKPKLLDEKQTTIYKKDESVNYQLKMKASRFIISEIKQNFPRMPFTARSLEEKRARLGLVECVNHGHLQPYPVLYEKPGSCRFGFLPGDFVAQIKFTVLLMPNGSDRITSHTLQELPKKTIEDPEIKGWLALGIKKKKGGGKKKKAQKAGEKGEASTEAEPMDASSNAQE
# B2: ErbB3-binding protein 1 (EBP1), endogenous (protein, UniProt Q96327-3 1-401)
# chain: T1 sequence
# B3: full-length EBP1 fused to the GAL4 DNA-activating domain (protein, UniProt Q96327-3 1-401)
# chain: T1 sequence
# B4: EBP1–C-terminal cyan fluorescent protein (cCFP) (protein, UniProt Q96327-3 1-401)
# chain: T1 sequence
# How the values were obtained:
# [1] = target: T1, full-length EBP1 protein tagged with GST (Arabidopsis); assay: pull-down; GST beads coupled with GST-EBP1 incubated overnight at 4°C with recombinant His-tagged FER-KD in 20 mM HEPES pH 7.5, 40 mM KCl, 5 mM MgCl2; washed with TBS; immunoblot with anti-His and anti-GST; both purified
# [2] = target: FER kinase domain (FER-KD, 469–896 aa) fused to the GAL4 DNA-binding domain (Arabidopsis) (UniProt Q9SCZ4); assay: two-hybrid; library screen: FER-KD in pGBKT7 as bait against an Arabidopsis cDNA library, yeast strain AH109
# [3] = target: FER-FLAG (Arabidopsis) (UniProt Q9SCZ4); assay: co-IP; anti-FLAG M2 agarose, extract of Ubi::FER-FLAG transgenic plants, eluted with 3 × FLAG peptide; blots with anti-FLAG and anti-EBP1
# [4] = target: FERONIA (FER), endogenous (Arabidopsis (endogenous in seedlings)) (UniProt Q9SCZ4); assay: co-IP; anti-FER antibody on A/G agarose, extracts of 7-DAG seedlings in NEBT buffer (0.5% Triton X-100), with or without 1 μM RALF1 for 30 minutes; preimmune serum as negative control; blots with anti-FER and anti-EBP1
# [5] = target: FER kinase domain (FER-KD, 469–896 aa) fused to the GAL4 DNA-binding domain (Arabidopsis) (UniProt Q9SCZ4); assay: two-hybrid; directed test: EBP1 in the AD vector (pGADT7), FER-KD or CrRLK1L members in the BD vector (pGBKT7), yeast strain AH109; SD/-Ade/-Leu/-His medium with 20 mM 3-AT
# [6] = target: FER-nVenus (Arabidopsis) (UniProt Q9SCZ4); assay: split reporter; BiFC of cCFP and nVenus fusions in Arabidopsis protoplasts, 16 hours at 23°C in the dark; FM4-64 marks the plasma membrane
molecule,measurement,setting,value
"kinase-dead version of FER-KD containing the Lys565-to-Arg mutation, His-tagged (from UniProt Q9SCZ4 469-895) (domain or fragment)",binding,[1],binds
FER-KD tagged with 6 × His (from UniProt Q9SCZ4 469-895) (domain or fragment),binding,[1],binds
B1,binding,[2],binds
B2,binding,[3],binds
same,binding,[4],binds
B3,binding,[5],binds
B4,binding,[6],binds

# From PMC6195255, “EBP1 nuclear accumulation negatively feeds back on FERONIA-mediated RALF1 signaling”
